± gives the standard deviation of the averaged measurements. The entries are a selection whose mix differs from that of the whole data set. Small differences around the control level are noise.
Compound: Nc1ncnc2c1ncn2[C@@H]1O[C@H](COP(=O)(O)OP(=O)(O)OP(=O)(O)O)[C@@H](O)[C@H]1O [adenosine triphosphate]
Assay: NP40-soluble protein abundance relative to vehicle (solubility fold change) (ratio); higher = more soluble protein in presence of ATP
How it was run: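 Jurkat crude lysate (Dounce-homogenised) was treated with eight concentrations from 0.1 to 10 mM for 10 min at room temperature, then 3 min at 37 °C. It was solubilised with 0.8% NP40 and benzonase (60 min, 4 °C) and ultracentrifuged, and the supernatant was TMT-labelled for LC-MS/MS. Intensities were vsn-normalised, and the value is the fold change against the NP40-processed vehicle per replicate, from three independent experiments.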

By UniProt entry, the sequences of proteins in these tests, tags left out. Where a name states a change or a piece, a line headed by the entry shows the natural chain unless it says otherwise.
UniProt Q9H6R0: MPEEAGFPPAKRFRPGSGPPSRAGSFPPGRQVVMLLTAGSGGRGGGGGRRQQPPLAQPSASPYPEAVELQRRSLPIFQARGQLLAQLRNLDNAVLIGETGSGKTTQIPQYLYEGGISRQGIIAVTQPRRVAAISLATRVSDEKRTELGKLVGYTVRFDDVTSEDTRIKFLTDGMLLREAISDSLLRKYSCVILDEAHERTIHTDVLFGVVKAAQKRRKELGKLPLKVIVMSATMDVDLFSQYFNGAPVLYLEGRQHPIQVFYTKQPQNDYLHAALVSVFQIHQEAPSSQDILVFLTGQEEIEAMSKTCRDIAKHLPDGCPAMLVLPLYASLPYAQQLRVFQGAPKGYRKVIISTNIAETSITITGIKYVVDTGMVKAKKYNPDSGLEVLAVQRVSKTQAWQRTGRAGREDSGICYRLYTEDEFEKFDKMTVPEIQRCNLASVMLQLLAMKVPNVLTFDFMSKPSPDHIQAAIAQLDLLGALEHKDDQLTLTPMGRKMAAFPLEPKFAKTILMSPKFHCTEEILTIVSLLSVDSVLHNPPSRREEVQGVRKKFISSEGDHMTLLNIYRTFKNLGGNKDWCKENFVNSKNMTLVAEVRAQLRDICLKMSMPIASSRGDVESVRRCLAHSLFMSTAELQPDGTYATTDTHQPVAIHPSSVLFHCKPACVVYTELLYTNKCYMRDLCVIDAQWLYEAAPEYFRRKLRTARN
UniProt Q9H089: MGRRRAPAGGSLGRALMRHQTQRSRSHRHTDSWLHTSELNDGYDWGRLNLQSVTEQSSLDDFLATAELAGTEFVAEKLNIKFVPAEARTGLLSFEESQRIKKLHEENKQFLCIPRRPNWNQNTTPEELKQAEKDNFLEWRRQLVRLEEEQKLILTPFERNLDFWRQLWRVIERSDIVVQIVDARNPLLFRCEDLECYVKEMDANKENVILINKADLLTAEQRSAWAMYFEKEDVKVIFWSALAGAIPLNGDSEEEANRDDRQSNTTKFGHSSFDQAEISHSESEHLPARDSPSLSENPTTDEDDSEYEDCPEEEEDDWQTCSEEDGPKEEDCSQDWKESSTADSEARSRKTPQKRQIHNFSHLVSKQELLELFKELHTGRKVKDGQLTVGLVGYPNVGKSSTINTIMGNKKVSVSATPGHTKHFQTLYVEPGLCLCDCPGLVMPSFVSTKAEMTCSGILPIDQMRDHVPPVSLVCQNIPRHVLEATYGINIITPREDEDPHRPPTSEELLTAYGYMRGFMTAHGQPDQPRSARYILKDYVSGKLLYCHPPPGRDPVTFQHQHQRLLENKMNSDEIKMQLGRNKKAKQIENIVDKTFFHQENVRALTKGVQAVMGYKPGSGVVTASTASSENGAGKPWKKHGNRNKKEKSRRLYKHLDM
UniProt Q9H0V9: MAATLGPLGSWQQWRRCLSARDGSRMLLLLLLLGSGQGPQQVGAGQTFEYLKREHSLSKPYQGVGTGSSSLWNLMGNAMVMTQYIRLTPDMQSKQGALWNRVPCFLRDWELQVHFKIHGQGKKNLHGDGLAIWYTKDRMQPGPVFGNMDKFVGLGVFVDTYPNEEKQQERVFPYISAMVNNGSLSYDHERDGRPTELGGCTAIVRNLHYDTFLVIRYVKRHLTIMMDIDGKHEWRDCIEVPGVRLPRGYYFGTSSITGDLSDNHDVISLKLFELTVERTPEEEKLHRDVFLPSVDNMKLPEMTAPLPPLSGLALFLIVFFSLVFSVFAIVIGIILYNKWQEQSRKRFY
UniProt Q9H981, whole entry: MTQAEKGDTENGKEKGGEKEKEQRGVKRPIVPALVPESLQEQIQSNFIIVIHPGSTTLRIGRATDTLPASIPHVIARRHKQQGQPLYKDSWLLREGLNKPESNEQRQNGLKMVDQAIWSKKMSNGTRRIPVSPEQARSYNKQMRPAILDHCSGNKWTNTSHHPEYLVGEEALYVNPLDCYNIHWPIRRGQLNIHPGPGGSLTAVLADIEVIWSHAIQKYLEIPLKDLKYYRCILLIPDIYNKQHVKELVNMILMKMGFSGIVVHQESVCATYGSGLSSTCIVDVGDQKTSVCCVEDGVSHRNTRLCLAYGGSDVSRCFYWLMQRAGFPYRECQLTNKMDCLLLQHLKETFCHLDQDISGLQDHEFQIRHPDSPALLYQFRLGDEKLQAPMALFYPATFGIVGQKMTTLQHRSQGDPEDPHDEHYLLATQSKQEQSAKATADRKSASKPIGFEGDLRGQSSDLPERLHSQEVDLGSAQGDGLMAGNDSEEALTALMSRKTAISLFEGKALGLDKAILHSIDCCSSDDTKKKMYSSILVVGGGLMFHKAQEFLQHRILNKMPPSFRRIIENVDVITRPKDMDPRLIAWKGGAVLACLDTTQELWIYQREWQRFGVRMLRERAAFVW
UniProt Q9HAN9, whole entry: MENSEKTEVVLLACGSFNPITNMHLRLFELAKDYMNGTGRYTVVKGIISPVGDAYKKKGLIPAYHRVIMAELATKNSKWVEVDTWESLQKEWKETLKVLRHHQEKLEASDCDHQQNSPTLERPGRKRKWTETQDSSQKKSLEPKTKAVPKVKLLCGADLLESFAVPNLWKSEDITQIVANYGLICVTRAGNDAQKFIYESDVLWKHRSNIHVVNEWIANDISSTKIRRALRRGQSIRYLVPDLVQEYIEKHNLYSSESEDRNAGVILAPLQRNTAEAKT
UniProt Q9HA47: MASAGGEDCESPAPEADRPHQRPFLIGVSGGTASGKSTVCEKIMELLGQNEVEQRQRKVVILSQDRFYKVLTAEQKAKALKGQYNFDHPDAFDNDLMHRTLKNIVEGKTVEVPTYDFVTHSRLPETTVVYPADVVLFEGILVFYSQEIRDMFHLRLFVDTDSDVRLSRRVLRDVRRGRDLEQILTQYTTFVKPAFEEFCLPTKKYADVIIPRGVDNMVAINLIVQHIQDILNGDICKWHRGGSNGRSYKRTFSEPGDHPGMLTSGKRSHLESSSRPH
UniProt Q9H0R5: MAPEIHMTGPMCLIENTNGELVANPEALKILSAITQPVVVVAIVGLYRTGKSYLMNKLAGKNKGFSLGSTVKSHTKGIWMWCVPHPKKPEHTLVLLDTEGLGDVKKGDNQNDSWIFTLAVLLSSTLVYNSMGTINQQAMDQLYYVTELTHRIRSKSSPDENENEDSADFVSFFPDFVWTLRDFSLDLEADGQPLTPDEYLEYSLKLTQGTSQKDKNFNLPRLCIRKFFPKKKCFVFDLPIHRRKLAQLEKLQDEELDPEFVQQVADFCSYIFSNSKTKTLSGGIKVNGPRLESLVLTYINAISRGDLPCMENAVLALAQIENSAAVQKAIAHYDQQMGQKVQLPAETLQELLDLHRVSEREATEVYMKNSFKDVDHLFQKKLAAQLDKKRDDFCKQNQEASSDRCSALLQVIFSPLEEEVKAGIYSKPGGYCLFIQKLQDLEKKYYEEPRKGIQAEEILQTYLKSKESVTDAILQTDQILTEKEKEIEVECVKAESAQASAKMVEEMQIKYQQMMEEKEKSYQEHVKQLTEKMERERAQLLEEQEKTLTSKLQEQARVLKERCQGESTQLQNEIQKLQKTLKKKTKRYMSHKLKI
UniProt Q9HCD5: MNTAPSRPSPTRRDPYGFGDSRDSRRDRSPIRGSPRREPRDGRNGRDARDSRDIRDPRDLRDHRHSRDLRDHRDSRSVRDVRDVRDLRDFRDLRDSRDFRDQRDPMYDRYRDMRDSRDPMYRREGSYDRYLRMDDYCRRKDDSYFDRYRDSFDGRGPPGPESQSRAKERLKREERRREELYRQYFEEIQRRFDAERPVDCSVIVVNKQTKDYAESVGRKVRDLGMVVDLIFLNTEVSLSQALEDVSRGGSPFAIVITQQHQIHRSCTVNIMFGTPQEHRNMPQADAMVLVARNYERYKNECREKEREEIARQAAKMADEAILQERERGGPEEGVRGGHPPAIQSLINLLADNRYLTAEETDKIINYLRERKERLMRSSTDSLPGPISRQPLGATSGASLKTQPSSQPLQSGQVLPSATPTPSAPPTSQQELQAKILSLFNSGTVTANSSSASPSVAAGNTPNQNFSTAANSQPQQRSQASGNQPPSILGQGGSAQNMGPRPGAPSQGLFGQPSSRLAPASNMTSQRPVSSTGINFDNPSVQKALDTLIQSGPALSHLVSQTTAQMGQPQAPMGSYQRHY
UniProt Q9H446: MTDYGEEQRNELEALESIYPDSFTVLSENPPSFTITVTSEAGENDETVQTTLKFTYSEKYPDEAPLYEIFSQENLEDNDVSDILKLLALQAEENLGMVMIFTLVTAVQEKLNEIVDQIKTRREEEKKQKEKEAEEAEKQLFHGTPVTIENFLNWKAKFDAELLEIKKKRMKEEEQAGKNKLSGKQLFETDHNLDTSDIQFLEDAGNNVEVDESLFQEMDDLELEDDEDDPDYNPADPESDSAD
UniProt Q9H5N1: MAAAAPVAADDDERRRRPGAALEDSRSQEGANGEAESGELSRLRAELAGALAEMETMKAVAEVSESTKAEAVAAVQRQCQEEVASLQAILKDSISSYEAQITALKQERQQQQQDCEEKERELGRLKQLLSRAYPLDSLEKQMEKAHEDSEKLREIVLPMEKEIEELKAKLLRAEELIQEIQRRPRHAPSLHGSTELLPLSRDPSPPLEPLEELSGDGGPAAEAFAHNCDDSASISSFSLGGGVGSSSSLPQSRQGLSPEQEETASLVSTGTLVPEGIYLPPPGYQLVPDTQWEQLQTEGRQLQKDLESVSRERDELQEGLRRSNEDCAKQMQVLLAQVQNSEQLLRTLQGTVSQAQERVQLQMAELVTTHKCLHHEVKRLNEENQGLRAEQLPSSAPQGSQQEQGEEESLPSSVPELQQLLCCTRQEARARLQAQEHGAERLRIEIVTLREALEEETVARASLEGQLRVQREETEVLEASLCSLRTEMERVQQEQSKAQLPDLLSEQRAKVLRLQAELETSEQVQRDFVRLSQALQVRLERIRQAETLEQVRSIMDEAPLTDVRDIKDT
UniProt Q9C073: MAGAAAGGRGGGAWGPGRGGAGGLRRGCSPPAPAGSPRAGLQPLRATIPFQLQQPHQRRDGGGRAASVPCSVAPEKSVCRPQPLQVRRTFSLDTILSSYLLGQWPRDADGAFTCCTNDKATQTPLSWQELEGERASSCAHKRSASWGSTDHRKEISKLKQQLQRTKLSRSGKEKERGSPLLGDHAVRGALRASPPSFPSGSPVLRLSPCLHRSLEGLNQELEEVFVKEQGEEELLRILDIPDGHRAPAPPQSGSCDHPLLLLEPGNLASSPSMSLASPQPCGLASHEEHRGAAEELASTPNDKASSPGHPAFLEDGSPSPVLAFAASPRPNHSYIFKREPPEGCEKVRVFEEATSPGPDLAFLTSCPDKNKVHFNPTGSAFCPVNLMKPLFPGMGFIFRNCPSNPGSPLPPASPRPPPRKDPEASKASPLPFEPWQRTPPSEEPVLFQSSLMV

| Target | NP40-soluble protein abundance (concentration: 0.1mM) | NP40-soluble protein abundance (concentration: 0.5mM) | NP40-soluble protein abundance (concentration: 1mM) | NP40-soluble protein abundance (concentration: 2mM) | NP40-soluble protein abundance (concentration: 4mM) | NP40-soluble protein abundance (concentration: 6mM) | NP40-soluble protein abundance (concentration: 8mM) | NP40-soluble protein abundance (concentration: 10mM) |
| --- | --- | --- | --- | --- | --- | --- | --- | --- |
| DHX33 (UniProt Q9H6R0) | 1.02 ± 0.026 | 1.01 ± 0.024 | 1.04 ± 0.059 | 1.1 ± 0.012 | 1.349 ± 0.0092 | 1.29 ± 0.089 | 1.44 ± 0.18 | 1.51 ± 0.2 |
| LSG1 (UniProt Q9H089) | 1.06 ± 0.016 | 1.06 ± 0.046 |  |  |  |  |  |  |
| UniProt Q9H0V9 and related entries | 1.08 ± 0.11 | 1.03 ± 0.14 |  |  |  |  |  |  |
| ACTR8 (UniProt Q9H981) | 1.04 ± 0.036 | 1.11 ± 0.046 |  |  |  |  |  |  |
| NMNAT1 (UniProt Q9HAN9) | 1.1 ± 0.15 | 1.06 ± 0.086 | 1.33 ± 0.36 | 3.44 ± 2.5 | 3.91 ± 2.9 | 4.35 ± 3.5 | 3.99 ± 2.9 | 3.99 ± 3 |
| UCK1 (UniProt Q9HA47) | 0.958 ± 0.041 | 0.904 ± 0.14 |  |  |  |  |  |  |
| UniProt Q9H0R5 and related entries | 0.913 ± 0.068 | 0.969 ± 0.029 |  |  |  |  |  |  |
| NCOA5 (UniProt Q9HCD5) | 1.004 ± 0.0032 | 1.039 ± 0.0075 | 1.09 ± 0.031 | 1.22 ± 0.056 | 1.49 ± 0.062 | 1.85 ± 0.12 | 2.23 ± 0.12 | 2.76 ± 0.14 |
| UniProt Q9H446 and related entries | 1.01 ± 0.06 | 1.04 ± 0.1 |  |  |  |  |  |  |
| RABEP2 (UniProt Q9H5N1) | 0.982 ± 0.04 | 0.929 ± 0.031 | 0.967 ± 0.062 | 0.941 ± 0.036 | 0.929 ± 0.035 | 0.956 ± 0.046 | 0.905 ± 0.011 | 0.901 ± 0.039 |
| FAM117A (UniProt Q9C073) | 1.01 ± 0.03 | 1 ± 0.037 | 1.04 ± 0.03 | 0.992 ± 0.02 | 0.999 ± 0.039 | 1.01 ± 0.025 | 0.972 ± 0.053 | 0.972 ± 0.024 |

— the supplement of paper PMC6411743
